Among the data in article PMC12460815 are binding values, retold here.

Sequences of proteins named here, by UniProt entry; tags and fusion partners are left off. A change or cut given only in a name is not applied to a line headed by its entry.
UniProt P09038: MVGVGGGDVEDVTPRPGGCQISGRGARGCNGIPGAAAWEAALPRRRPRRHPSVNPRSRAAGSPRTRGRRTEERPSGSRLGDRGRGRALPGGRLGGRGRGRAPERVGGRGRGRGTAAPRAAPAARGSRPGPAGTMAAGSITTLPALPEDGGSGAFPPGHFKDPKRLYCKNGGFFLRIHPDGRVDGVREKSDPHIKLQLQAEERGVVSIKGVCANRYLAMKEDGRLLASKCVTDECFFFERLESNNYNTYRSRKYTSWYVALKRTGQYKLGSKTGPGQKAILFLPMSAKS
UniProt Q14974: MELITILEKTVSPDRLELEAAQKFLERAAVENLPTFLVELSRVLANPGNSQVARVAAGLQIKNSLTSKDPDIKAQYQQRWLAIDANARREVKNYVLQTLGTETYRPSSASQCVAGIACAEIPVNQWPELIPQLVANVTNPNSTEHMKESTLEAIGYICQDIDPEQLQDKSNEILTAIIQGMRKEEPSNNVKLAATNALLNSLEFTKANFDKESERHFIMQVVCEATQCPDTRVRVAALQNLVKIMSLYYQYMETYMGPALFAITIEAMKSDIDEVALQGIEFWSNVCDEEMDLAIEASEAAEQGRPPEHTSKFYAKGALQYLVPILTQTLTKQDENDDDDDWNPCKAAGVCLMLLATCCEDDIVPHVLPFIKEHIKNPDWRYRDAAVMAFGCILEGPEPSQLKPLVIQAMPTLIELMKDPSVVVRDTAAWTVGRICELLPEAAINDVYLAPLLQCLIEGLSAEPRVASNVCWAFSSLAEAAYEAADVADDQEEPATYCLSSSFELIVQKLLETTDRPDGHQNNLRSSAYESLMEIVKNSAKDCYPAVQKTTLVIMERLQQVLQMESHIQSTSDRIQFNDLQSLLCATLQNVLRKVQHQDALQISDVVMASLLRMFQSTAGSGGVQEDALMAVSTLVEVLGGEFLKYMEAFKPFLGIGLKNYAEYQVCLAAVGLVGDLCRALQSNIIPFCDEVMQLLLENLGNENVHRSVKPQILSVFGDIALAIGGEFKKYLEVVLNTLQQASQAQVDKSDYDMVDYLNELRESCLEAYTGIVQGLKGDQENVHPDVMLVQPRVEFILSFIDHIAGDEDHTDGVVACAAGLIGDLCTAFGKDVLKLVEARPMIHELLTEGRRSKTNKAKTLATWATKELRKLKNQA

The target in this experiment is basic fibroblast growth factor (FGF2) (human (endogenous in BMSCs)) (UniProt P09038). Kind of experiment: co-IP; anti-FGF2 antibody and Protein A/G PLUS-Agarose on RIPA lysates of human BMSCs; immunoblot for KPNB1; normal and aged BMSCs, and BMSCs under osteogenic induction for 1, 4 and 7 days. Background: Immunoblotting shows a protein as a band on a membrane.

Results are given in words; binding and its absence hold for the method and conditions named. Binding seen in cells or lysates may run through a third protein. Binding can be weak; no strength is given.

As to “karyopherin beta 1 (KPNB1) (from UniProt Q14974 1-876)”, the binding result is “binds”.
